{
  "source": "patent US20180086789A1",
  "about": "(VALLAURIX PTE. LTD., priority 2015, published 2018)",
  "test": "peptide synthesis",
  "conditions": "whole synthesis, HPLC",
  "note": "Non-standard residues stand in square brackets, D forms with d. hArg = N=C(N)NCCCC[C@H](N)C(=O)O; Nle = CCCC[C@H](N)C(=O)O",
  "data": [
    {"substance": "Ac-[Nle]EH[dF][hArg]W-NH2", "values": [
      {"measurement": "purity (crude or final not stated)", "result": 100, "unit": "%"}
    ]}
  ]
}
